Reference: article PMC10320395, “Molecular insights into LINC complex architecture through the crystal structure of a luminal trimeric coiled-coil domain of SUN1” (Frontiers in Cell and Developmental Biology, 2023)
These are yes or no findings as the source states them, for the method shown. Where a sequence is shown, tags or fusion partners need not be part of it.

Assays:
[1] = target: MBP-SUN1 α1 (MBP fusion of human SUN1 amino-acids 362–401) (human) (UniProt O94901); assay: condition: only after over-night incubation with 10 mM EDTA; SEC-MALS; MBP-SUN1 α1 at 20 mg/mL after over-night incubation with 10 mM EDTA; Superdex 200 Increase 10/300 GL, 20 mM HEPES pH 7.5, 150 mM KCl, 2 mM DTT; both purified
[2] = target: MBP-SUN1 α1 C376A (human) (UniProt O94901); assay: SEC-MALS; MBP-SUN1 α1 C376A at 5 mg/mL after purification, and after over-night incubation with 2 mM zinc acetate or 10 mM EDTA; Superdex 200 Increase 10/300 GL, 20 mM HEPES pH 7.5, 150 mM KCl, 2 mM DTT; both purified

B1: MBP-SUN1 α1 (MBP fusion of human SUN1 amino-acids 362–401) (domain or fragment, UniProt O94901 362-401, looked up)
chain: MSGVEQQVASLSGQCHHHGENLRELTTLLQKLQARVDQME
notes: human SUN1, Uniprot O94901, amino-acids 362–401 (α1 coiled-coil domain); The uncleaved His-MBP fusion from pMAT11, used to give greater molecular mass resolution in SEC-MALS; theoretical monomer 49 kDa; The His tag probably stays with the MBP (surmise); source: E. coli BL21 (DE3), purified (Ni-NTA, amylose, ion exchange); not shown: MBP, N-terminal, kept
binding [1]: no binding

MSGVEQQVASLSGQAHHHGENLRELTTLLQKLQARVDQME (domain or fragment, UniProt O94901 362-401) [MBP-SUN1 α1 C376A]
binding [2]: no binding (tested: 5 mg/mL)
